These results are taken from patent publication US20190041402A1 (GOVERNING COUNCIL OF THE UNIVERSITY OF TORONTO, published 2019).

Numbering of substitutions follows the chain as printed. Results are given in words; binding and its absence hold for the method and conditions named. A result given as binding can be weak or reduced; the word gives no strength.

The chains are these.
B1: anti-αKlotho clone 4831 full length IgG (antibody, V domains shown)
VH: EVQLVESGGGLVQPGGSLRLSCAASGFNIYSSSIHWVRQAPGKGLEWVASIYPYSGYTYYADSVKGRFTISADTSKNTAYLQMNSLRAEDTAVYYCARYSWGSSFWPGYGFDYWGQGTLVTVSS
VL: DIQMTQSPSSLSASVGDRVTITCRASQSVSSAVAWYQQKPGKAPKLLIYSASSLYSGVPSRFSGSRSGTDFTLTISSLQPEDFATYYCQQYSYYYASPITFGQGTKVEIKR
B2: sb106 IgG (antibody, V domains shown)
VH: EVQLVESGGGLVQPGGSLRLSCAASGFNISYYSIHWVRQAPGKGLEWVAYISPSYGYTSYADSVKGRFTISADTSKNTAYLQMNSLRAEDTAVYYCARYYVYASHGWAGYGMDYWGQGTLVTVSS
VL: DIQMTQSPSSLSASVGDRVTITCRASQSVSSAVAWYQQKPGKAPKLLIYSASSLYSGVPSRFSGSRSGTDFTLTISSLQPEDFATYYCQQAGYSPITFGQGTKVEIKR
notes: also called sb106 (48) full length IgG
B3: anti-αKlotho clone 4808 full length IgG (antibody, V domains shown)
VH: EVQLVESGGGLVQPGGSLRLSCAASGFNFSSSSIHWVRQAPGKGLEWVASISSSYGYTYYADSVKGRFTISADTSKNTAYLQMNSLRAEDTAVYYCARPYSAYYWAWYGPGGALDYWGQGTLVTVSS
VL: B2 VL with A91S, G92S, P95L

This experiment deals with biotinylated αKlotho (aa1-549). The experiment in a line: capture ELISA, IgG coated, biotinylated αKlotho aa1-549. (In general: ELISA stands for enzyme-linked immunosorbent assay.)
B1: the binding result is reported as “binds”.
Take B2: the binding entry is reported as “no binding (tested: 20 ng)”.
As for B3, the entry is “no binding (tested: 20 ng)”.
